Data from paper PMC7819943, “Rice protein-binding microarrays: a tool to detect cis-acting elements near promoter regions in rice”.
This is one part of the list.

What follows are sequences tested against T1, OsSMF1 (Oryza sativa, UniProt Q6ZLB0 1-436) (assay: protein-binding microarray (RPBM); PBS, 2% BSA, 51.3 ng/ul salmon testes DNA, 50 uM zinc acetate, 200 nM TF, 25 C, 1 h; high values mean tight binding). Conditions: protein: recombinant; tags: N-terminal polyhistidine and DsRed monomer fusion (pET32a); chain copies: 2; label: CyDye5-dUTP incorporated in the synthesized complementary strand; 3' TTTTT single-stranded linker to array surface; dsDNA, one strand shown.
T1 sequence: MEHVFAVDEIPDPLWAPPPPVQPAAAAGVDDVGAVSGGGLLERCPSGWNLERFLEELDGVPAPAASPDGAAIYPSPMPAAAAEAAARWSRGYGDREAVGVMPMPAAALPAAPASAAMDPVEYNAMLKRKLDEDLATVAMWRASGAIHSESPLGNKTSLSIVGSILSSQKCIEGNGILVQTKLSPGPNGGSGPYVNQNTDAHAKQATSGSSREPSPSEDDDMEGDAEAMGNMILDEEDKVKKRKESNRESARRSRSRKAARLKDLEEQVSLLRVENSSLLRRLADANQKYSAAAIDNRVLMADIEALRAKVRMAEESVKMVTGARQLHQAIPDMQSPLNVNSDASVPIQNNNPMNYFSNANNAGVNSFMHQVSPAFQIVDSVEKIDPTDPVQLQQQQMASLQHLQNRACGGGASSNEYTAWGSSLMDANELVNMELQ
Summary of the method: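 An Axon 4000B scanner gave the binding signal as per-feature fluorescence intensity in arbitrary units. This followed washing of a custom Agilent array that had been incubated for 1 h at 25 °C with 200 nM protein in PBS, 2% BSA, salmon testes DNA and 50 µM zinc acetate. The proteins were transcription factors fused at the N-terminus to polyhistidine and DsRed, expressed in E. coli BL21-CodonPlus and purified on Ni–NTA.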
In the case of “ACATCATATAACGTGAAACGGAGGGAGGATATATAGTCAGCGGAGTCACCTAGTGCAG”, the binding signal is reported as 3510 fluorescence intensity (a.u.).
In the case of “GCGAGGGGTGGTGCGACTGCATCATCGCGGCGGCGGCGGCCGGAGTCACCTAGTGCAG”, the binding signal is reported as 3650 fluorescence intensity (a.u.).
For “CGGCAATCCGGTGGTGCGTGACGTCGGCCATAGCGGTAGACGGAGTCACCTAGTGCAG”, the binding signal was 6070 fluorescence intensity (a.u.).
In the case of “TTGTCTCCATCTGCTATGATCTTGCACGTGGCAAGCAAGTCGGAGTCACCTAGTGCAG”, the binding signal is reported as 7330 fluorescence intensity (a.u.).
For “TTAAGAGCGGGTCGATGACTGGATGTGTTCCGGATTAGTACGGAGTCACCTAGTGCAG”, the binding signal was 5370 fluorescence intensity (a.u.).
In the case of “ACTGTTATTCCTACAGGCCAAAGCTGACCTAACCAATTCACGGAGTCACCTAGTGCAG”, the binding signal is reported as 46800 fluorescence intensity (a.u.).
“ACGAGAGCGCGTACAGTAGCTGATGGTGTGGAAACAGGGCCGGAGTCACCTAGTGCAG” was tested, and the binding signal was 3280 fluorescence intensity (a.u.).
With “CCCAAGTGGCGTCAGTGCGTCACCACCATTAACGTACGAGCGGAGTCACCTAGTGCAG” the binding signal was 4980 fluorescence intensity (a.u.).
With “GGTACGGCATCCATGTGTGCAAATCATCATCCGCATGCAACGGAGTCACCTAGTGCAG” the binding signal was 3660 fluorescence intensity (a.u.).
“TTGCTTAACATATGCAAGTCGTTTCGGGGAGAGGGGCAGACGGAGTCACCTAGTGCAG” was tested, and the binding signal was 3790 fluorescence intensity (a.u.).
For “GTAACCCGGTGCGCCACCGACCGAGACGACGCACATCTCGCGGAGTCACCTAGTGCAG”, the binding signal was 3490 fluorescence intensity (a.u.).
For “TAGCCACACCCACACGCACACCCGATCGATCCTGGCATCCCGGAGTCACCTAGTGCAG”, the binding signal was 3400 fluorescence intensity (a.u.).
In the case of “CAATTGAAATGAATTATTGTCGTCCCTAGTTAATTACTAGCGGAGTCACCTAGTGCAG”, the binding signal is reported as 3280 fluorescence intensity (a.u.).
With “TAATCTCCGACCTGGTCTCTAGTGATGTGTGTGCTTGTGTCGGAGTCACCTAGTGCAG” the binding signal was 4340 fluorescence intensity (a.u.).
For “TCGAGGATATAGGGTCACTCATGTTGAGTATTATGTGTTTCGGAGTCACCTAGTGCAG”, the binding signal was 3800 fluorescence intensity (a.u.).
With “TTGTTGGCTGAAGTTCAGTGACTAATGATGGAATTCGTTGCGGAGTCACCTAGTGCAG” the binding signal was 4500 fluorescence intensity (a.u.).
With “TGTAAACCATAAAACTTCAGTTACATCATTTTGCCTACTACGGAGTCACCTAGTGCAG” the binding signal was 3150 fluorescence intensity (a.u.).
With “CCCACCGTCCCCGCGCGCCACGTCAGATCACCGCGGAGGTCGGAGTCACCTAGTGCAG” the binding signal was 19100 fluorescence intensity (a.u.).
With “CTTCGTGACTCATCCAGCGCCTCCCCTGTGCCGCACCGGCCGGAGTCACCTAGTGCAG” the binding signal was 10600 fluorescence intensity (a.u.).
For “ATCAAGGGTTGCTGCGTCGGTCCGAAGAAGAGAGTCGTCACGGAGTCACCTAGTGCAG”, the binding signal was 3230 fluorescence intensity (a.u.).
For “ATCATCTCCGCTCCCACCCAAGATCCTCTGACGTCTGGGTCGGAGTCACCTAGTGCAG”, the binding signal was 3240 fluorescence intensity (a.u.).
With “CTATCCGTCCAAATTAGGCTATCTCTAAAGATTAACTAACCGGAGTCACCTAGTGCAG” the binding signal was 41000 fluorescence intensity (a.u.).
With “GGGCTCCCAAACCGGGTCCCTGTCGGGCTCGCTCCGAACCCGGAGTCACCTAGTGCAG” the binding signal was 3170 fluorescence intensity (a.u.).
For “TTTTAGTACAGGTCATACCTAAATCGTTACAAATTCAGCACGGAGTCACCTAGTGCAG”, the binding signal was 4700 fluorescence intensity (a.u.).
With “AGAGGAGGGATGAGTTGGACTGACATGTGGTGCTCAGGTGCGGAGTCACCTAGTGCAG” the binding signal was 3980 fluorescence intensity (a.u.).
For “ATGTTACAACTGGACTTCATTCTCCAGTAAAATCGTATGTCGGAGTCACCTAGTGCAG”, the binding signal was 19600 fluorescence intensity (a.u.).
With “TCCGCGCGGGCCCACTGTCCAGTGACACAGTGAACACAATCGGAGTCACCTAGTGCAG” the binding signal was 3620 fluorescence intensity (a.u.).
“AAATGAATACAGTCTATACGTGTACTCCCTCCGTTCCATACGGAGTCACCTAGTGCAG” was tested, and the binding signal was 5240 fluorescence intensity (a.u.).
For “CTACTAGCAGCCTACCAGCATAACTAGTGGAGCAGTAGACCGGAGTCACCTAGTGCAG”, the binding signal was 5620 fluorescence intensity (a.u.).
In the case of “TTCTTTGTTGTTGCTGACTAGTTGCATACGTGGGCAATGACGGAGTCACCTAGTGCAG”, the binding signal is reported as 17200 fluorescence intensity (a.u.).
“ACCTAGAAACTAAGGCTGTGTTTAGTTCAGCGTAAAGTTTCGGAGTCACCTAGTGCAG” was tested, and the binding signal was 3570 fluorescence intensity (a.u.).
In the case of “GTCTCCGATGCCCCGATGCCGCCGCGTCGCTGGCCTGATTCGGAGTCACCTAGTGCAG”, the binding signal is reported as 3390 fluorescence intensity (a.u.).
With “AGTTTCCGAGAGCGAGCGAGAGAGAGAGAGAGAGAGAGAGCGGAGTCACCTAGTGCAG” the binding signal was 3220 fluorescence intensity (a.u.).
In the case of “CATCGTGCTCTTCTCATTGCCTCTGCTTCTCGTGTTCTTGCGGAGTCACCTAGTGCAG”, the binding signal is reported as 3420 fluorescence intensity (a.u.).
With “GGAAGCGGTTGATTGAATGAGGGATGGCGTGGATGAAAGCCGGAGTCACCTAGTGCAG” the binding signal was 4540 fluorescence intensity (a.u.).
In the case of “CCGCTCTCCTACTGCTCGGCCAACCAGTCATGCACACATACGGAGTCACCTAGTGCAG”, the binding signal is reported as 3500 fluorescence intensity (a.u.).
“TTTTATACTACTACCAGCTGATGATGATTCAGCAGCTCACCGGAGTCACCTAGTGCAG” was tested, and the binding signal was 6140 fluorescence intensity (a.u.).
With “TCCCATGGCTCGCGTTCGGCCACGTGCTCCCTTACCTAGACGGAGTCACCTAGTGCAG” the binding signal was 3870 fluorescence intensity (a.u.).
With “CTCCATATGCTATGACATGGATTAATTAATGGTTCGTGCGCGGAGTCACCTAGTGCAG” the binding signal was 5450 fluorescence intensity (a.u.).
With “GATGTGCTCCACCACCGGTGAGGTCACGGCCGCCGCCTCCCGGAGTCACCTAGTGCAG” the binding signal was 3640 fluorescence intensity (a.u.).
“CAAATGGTACAATTCAATTTATGTTGTTAGGCTTTACGTGCGGAGTCACCTAGTGCAG” was tested, and the binding signal was 3690 fluorescence intensity (a.u.).
In the case of “CGACGGGGCCATGTGGTTTGGTTTTGTTTAGCATCCCGTCCGGAGTCACCTAGTGCAG”, the binding signal is reported as 3270 fluorescence intensity (a.u.).
